From patent US20090041687A1 (priority 2005, published 2009)
At least one structure is not confirmed: it was looked up by name or label, or the drawing left a doubt.

The chains behind the UniProt entries cited, without tags or fusion partners.
UniProt P35372, whole entry: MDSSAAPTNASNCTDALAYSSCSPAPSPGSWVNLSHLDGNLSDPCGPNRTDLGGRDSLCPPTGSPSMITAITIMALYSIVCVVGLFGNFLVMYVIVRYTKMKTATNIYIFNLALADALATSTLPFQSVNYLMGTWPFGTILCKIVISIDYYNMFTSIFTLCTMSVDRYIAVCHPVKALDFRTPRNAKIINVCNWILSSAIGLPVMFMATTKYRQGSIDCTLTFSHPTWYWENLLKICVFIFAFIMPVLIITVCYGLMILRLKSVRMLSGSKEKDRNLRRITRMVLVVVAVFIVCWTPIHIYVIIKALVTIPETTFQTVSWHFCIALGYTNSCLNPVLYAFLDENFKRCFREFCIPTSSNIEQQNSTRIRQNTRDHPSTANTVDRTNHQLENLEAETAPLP

Target: T1, μ-opioid receptor (Homo sapiens, UniProt P35372)
T1 construct: purchased Perkin Elmer; host or cells: CHO cells (recombinant overexpression; membrane preparation)
Assay: μ-opioid receptor binding assay and GTP-recruitment assay (screening for antagonists)
Type: biochemical
Conditions: [3H] DAMGO binding and DAMGO/GTP-Eu recruitment, membranes from CHO cells overexpressing the receptor; result in words
Description: […] DAMGO (Amersham) in 50 mM Tris HCl pH 7.4 (Sigma), 10 mM MgCl2 (Sigma) and 0.2% BSA (Sigma) in the presence of the negative control DMSO (Fluka) or the test compounds. The incubation mixture was transferred to filter plates (Perkin Elmer), the liquid aspirated through the application of a vacuum from the bottom and the plate washed twice with PBS (Invitrogen). The plate was allowed to dry, 35 μl of scintillation cocktail (Ultima Gold, Perkin Elmer) added, sealed and placed on a TopCount (Packard) for scintillation counting.
[…] The incubation mixture was transferred to filter plates (Perkin Elmer), the liquid aspirated through the application of a vacuum from the bottom and the plate washed twice with PBS (Invitrogen) and allowed to dry. Plates were read in an Analyst reader (LJL Biosystems).

## CC(=O)O[C@H](CC=C(C)C)C1=CC(=O)c2c(O)ccc(O)c2C1=O [Acetylshikonin]
  identified as opioid receptor antagonist in the screening: opioid receptor antagonists
